Measured data: PubChem BioAssay AID1259288 (Sanger Institute, 2017)
Shown is one part, drawn at random, of 160 reagents tested. 7 of them (4.4%) were called active. 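Active calls arise only from BYL719 or trametinib; no cetuximab synergy went beyond 0.10; drug doses chosen to have mild effect alone.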 A number with no mark means an inactive call. Reagents against one gene are numbered here. Not all columns of the deposit are shown. Not given: the amount of reagent, the time to read-out.

- Aim: 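Follow up primary screen gene-drug synthetic lethal pairs using separate siRNA duplexes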 (follow-up of hits with single siRNAs)
- Cell system: HT29 human colorectal cancer cells
- Reagent: single siRNA against human genes
- Treatment: anchor drugs BYL719 (1 µM), cetuximab (5 µg/ml) or trametinib (10 nM), or DMSO vehicle; each drug dosed to cause only modest loss of viability on its own
- Measured: 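Synergy score comparing combined siRNA and drug against siRNA alone and drug alone, and viability averaged over replicates and normalised to control pool 2 (non-targeting)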
- Scale: synergy score with BYL719 and synergy score with trametinib and synergy score with cetuximab: higher = stronger combined killing than expected from each alone
- Active means: 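a gene counts as active if its synergy score is above 0.10 for one or more anchor drugs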

target gene | reagent no. | synergy score with BYL719 | synergy score with trametinib | synergy score with cetuximab
CDKN2D (GeneID 1032) | 1 | -0.29 | -0.0297 | -0.16
CDKN2D (GeneID 1032) | 2 | -0.293 | -0.0383 | -0.222
CDKN2D (GeneID 1032) | 3 | -0.228 | -0.0616 | -0.123
CDKN2D (GeneID 1032) | 4 | -0.124 | -0.0101 | -0.185
MARK3 (GeneID 4140) | 1 | -0.00167 | -0.0221 | -0.0863
MARK3 (GeneID 4140) | 2 | -0.231 | -0.0655 | -0.05
MARK3 (GeneID 4140) | 3 | -0.0921 | -0.116 | -0.00253
MARK3 (GeneID 4140) | 4 | -0.0331 | 0.0443 | -0.0961

Already shown: entries from further up.
target gene | reagent no. | synergy score with BYL719 | synergy score with trametinib | synergy score with cetuximab
CDKN2D (GeneID 1032) | 4 | -0.124 | -0.0101 | -0.185
MARK3 (GeneID 4140) | 1 | -0.00167 | -0.0221 | -0.0863

More records:
target gene | reagent no. | synergy score with BYL719 | synergy score with trametinib | synergy score with cetuximab
SYK (GeneID 6850) | 1 | -0.0415 | -0.0231 | -0.162
SYK (GeneID 6850) | 2 | -0.119 | 0.0848 | -0.268
SYK (GeneID 6850) | 3 | -0.207 | -0.0153 | -0.318
SYK (GeneID 6850) | 4 | -0.21 | -0.0368 | -0.165
CAMK2N1 (GeneID 55450) | 1 | 0.0696 | -0.00326 | 0.0361
CAMK2N1 (GeneID 55450) | 2 | -0.039 | -0.0469 | -0.134
CAMK2N1 (GeneID 55450) | 3 | 0.25 (active) | 0.0399 | -0.082
CAMK2N1 (GeneID 55450) | 4 | 0.0313 | -0.141 | -0.0688
